Measured values taken from the supplement of paper PMC8551327.
Counter-ions that a name gives are not always drawn. This is one part of the list. Rule as the data show it: active = 1.25 or more and inactive = the rest. Single values are uncertain, as repeats are few or missing.

system: Kcc2-LUC knock-in mouse primary cortical neurons (Kcc2 promoter reporter); test: Kcc2 promoter-driven luciferase activity relative to vehicle control (fold of vehicle (ratio)); higher = stronger Kcc2 promoter activation (Kcc2 expression enhancer); settings: 100 nM; 48 h

SMILES	Kcc2 promoter-driven luciferase activity
O=C1C=C2C(=CCOC2O)O1 (stereo not given) [Patulin]	active: 1.63
NC(=O)OCc1c(O)c2c(c(O)c1COC(N)=O)C(=O)C=CC2=O	inactive: 1
NC(=O)c1cn(C2OC(CO)C(O)C2O)c2ncnc(N)c12 (stereo not given) [Sauzivamycin]	inactive: 1.22
CC(=O)O[C@H]1C[C@H](O[C@H]2[C@@H](O)C[C@H](O[C@H]3[C@@H](O)C[C@H](O[C@H]4CC[C@@]5(C)[C@H](CC[C@@H]6[C@@H]5CC[C@]5(C)[C@@H](C7=CC(=O)OC7)CC[C@]65O)C4)O[C@@H]3C)O[C@@H]2C)OC(C)[C@H]1O[C@@H]1O[C@H](CO)[C@@H](O)[C@H](O)[C@H]1O (stereo not given in full) [Lanatoside A]	inactive: 1.03
C=Cc1cc(OC)c2c(c1)c(=O)oc1c2cc(OC)c2c(O)ccc(C3OC(C)C(O)C(C)(O)C3O)c21 (stereo not given) [Chrysomycin A]	inactive: 0.73
COC1C(C)OC(OC2CC(C)(O)Cc3cc4c(c(O)c32)C(=O)c2c(O)cc3c(c2C4=O)OC2OC3(C)C(O)C(N(C)C)C2O)C(OC)C1(C)OC (stereo not given)	inactive: 0.88
CC1C=CC=CCCC=CC=CC=CC=CC(OC2OC(C)C(O)C(N)C2O)CC2OC(O)(CC(O)C(O)CCC(O)CC(O)CC(O)CC(=O)OC(C)C(C)C1O)CC(O)C2C(=O)O (stereo not given) [Nystatin]	active: 1.34
COc1cc([C@@H]2c3cc4c(c(O)c3C[C@H]3COC(=O)[C@@H]32)OCO4)cc(OC)c1O [Alpha-Peltatin]	inactive: 0.86
O=[N+]([O-])c1cc(C(F)(F)F)cc2n[se]nc12 [4-Nitro-6-(trifluoromethyl)-2,1,3-benzoselenadiazole]	inactive: 1.09
NCCCNCCSP(=O)(O)O [Amifostine]	inactive: 1.19
CO[C@@H](/C(C)=C/C=C/C(C)=C/c1coc(C)n1)[C@@H](C)[C@@H]1C[C@H](O)[C@@]2(C)O[C@@H]2/C=C/[C@@H](C)[C@H]2C[C@H](CC(=O)O2)C[C@@H]2O[C@H]2C(=O)O1	inactive: 1.07
C[C@@H]1CC[C@@]2(OC1)O[C@H]1CC3[C@@H]4CC=C5C[C@@H](O[C@@H]6O[C@H](CO)[C@@H](O[C@@H]7O[C@@H](C)[C@H](O[C@@H]8O[C@@H](C)[C@H](O)[C@@H](O)[C@@H]8O)[C@@H](O)[C@H]7O)[C@H](O)[C@H]6O[C@@H]6O[C@@H](C)C(O)[C@@H](O)[C@H]6O)CC[C@]5(C)[C@H]4CC[C@]3(C)[C@H]1[C@@H]2C (stereo not given in full) [Polyphyllin B, DIOSGENIN TETRAGLYCOSIDE]	inactive: 1.04
CC[C@](C)(O)C(=O)O[C@H]1C(=O)O[C@@H]2C[C@H]3C(C)=CC(=O)[C@@H](O)[C@]3(C)[C@H]3C4(O)OC[C@]32[C@@H]1[C@@H](C)[C@H]4O	inactive: 0.681
CC(C)C[C@H]1C(=O)N2CCC[C@H]2[C@]2(O)O[C@](NC(=O)[C@@H]3C=C4c5cccc6[nH]c(Br)c(c56)C[C@H]4N(C)C3)(C(C)C)C(=O)N12	inactive: 0.75
CC(=O)O[C@H]1C(=O)[C@@]2(C)[C@H]([C@H](OC(=O)c3ccccc3)[C@]3(O)C[C@H](O)C(C)=C1C3(C)C)[C@]1(OC(C)=O)CO[C@@H]1C[C@@H]2O	active: 1.35
C[C@H]1Oc2cc3c(-c4c(O)cc(O)c5c(O)c6c(cc45)O[C@H](C)[C@@H](C)C6=O)c(O)cc(O)c3c(O)c2C(=O)[C@@H]1C [Chaetochromin A]	active: 1.33
COC(=O)C1=COC(C)C2CN3CCC4(C(=O)Nc5ccccc54)C3CC12 (stereo not given) [Isopteropodin]	inactive: 0.713
CC1CCC2C(C)C3C(CC4C5CC=C6CC(OC7OC(CO)C(O)C(OC8OC(CO)C(O)C(O)C8O)C7OC7OC(C)C(O)C(O)C7O)CCC6(C)C5CCC43C)N2C1 (stereo not given)	active: 1.37
N#Cc1cn([C@@H]2O[C@H](CO)[C@@H](O)[C@H]2O)c2ncnc(N)c12 [Naritheracin]	active: 5.53
COC1CC(OC2CCC3(C=O)C4CCC5(C)C(C6=CC(=O)OC6)CCC5(O)C4CCC3(O)C2)OC(C)C1OC1OC(COC2OC(CO)C(O)C(O)C2O)C(O)C(O)C1O (stereo not given) [K-Strophanthoside]	inactive: 1.11

Taken from above (two entries):
SMILES	Kcc2 promoter-driven luciferase activity
CC1CCC2C(C)C3C(CC4C5CC=C6CC(OC7OC(CO)C(O)C(OC8OC(CO)C(O)C(O)C8O)C7OC7OC(C)C(O)C(O)C7O)CCC6(C)C5CCC43C)N2C1 (stereo not given)	active: 1.37
N#Cc1cn([C@@H]2O[C@H](CO)[C@@H](O)[C@H]2O)c2ncnc(N)c12 [Naritheracin]	active: 5.53

Remaining list, next part:

SMILES	Kcc2 promoter-driven luciferase activity
C/C=C1/CN2C3CC45c6ccccc6N(C)C4C2CC1C3C5O (stereo not given) [Tetraphyllicine]	active: 1.29
NC(N)=NOCCC(N)C(=O)O (stereo in doubt) [L-Canavanine Sulphate]	inactive: 1.02
CC1OC(O[C@@H]2C=C3CC[C@@H]4[C@H](CC[C@]5(C)[C@@H](c6ccc(=O)oc6)CC[C@]45O)[C@@]3(C)CC2)C(O)C(OC2OC(CO)C(O)C(O)C2O)C1O (stereo not given in full)	inactive: 1.18
CC(=O)[O][Hg][c]1c(C)c(C)c(C)c(C)c1C [Mercury, (acetyloxy)(pentamethylphenyl)-]	inactive: 0.49
CO[C@H]1CC=C2CCN3CCC4=C(CC(=O)OC4)[C@]23C1 [Dihydro-beta-erythroidine]	inactive: 0.61
C[C@@H]1CCOC(=O)/C=C/C=C\C(=O)O[C@@H]2C[C@H]3O[C@@H]4[C@@H]5O[C@]5(C)[C@H](O)C[C@]4(COC(=O)[C@H]1O)[C@]2(C)[C@@]31CO1	inactive: 0.99
C=C1C(C)C2C(Cc3ccccc3)NC(=O)C23C(OC(C)=O)/C=C/C(C)(O)CC(C)C/C=C/C3C1O (stereo not given) [Kodocytochalasin 1]	inactive: 0.927
NC(=O)c1cn(C2OC(CO)C(O)C2O)c2ncnc(N)c12 (stereo not given)	inactive: 1
O=[Se](O)O.[Na+] [Selendale]	inactive: 0.81
C[C@@H]1CC[C@H]2[C@@H](C)C(=O)O[C@@H]3O[C@@]4(C)CC[C@@H]1[C@]32OO4 [Artemisinin]	inactive: 1.17
CO[C@@H](C)[C@](O)(C(=O)OCC1=CCN2CC[C@H](O)[C@@H]12)C(C)(C)O [Europine]	inactive: 0.61
CN1CCc2cc3c(cc2[C@H]1[C@@H]1OC(=O)c2c1ccc1c2OCO1)OCO3 [Bicuculline]	inactive: 1.12
Oc1cccc2cccnc12 [Oxyquinoline]	active: 1.25
CC(=O)[O][Pb]([O]C(C)=O)([c]1ccccc1)[c]1ccccc1 [Diphenyllead diacetate]	inactive: 0.71
[Cl][Pt+2]([Cl])([Cl])[Cl].c1ccc(C2CC[N-]CC2)cc1.c1ccc(C2CC[N-]CC2)cc1 [Platinum, (OC-6-22)]	inactive: 1.23
CO[C@H]1Nc2c(ccc(C)c2O)C(=O)N2C=C(/C=C/C(N)=O)C[C@@H]12 [Anthramycin Methyl Ether]	inactive: 0.675
Cc1c(N)nc([C@H](CC(N)=O)NC[C@H](N)C(N)=O)nc1C(=O)N[C@H](C(=O)N[C@H](C)[C@@H](O)[C@H](C)C(=O)N[C@H](C(=O)NCCc1nc(-c2nc(C(=O)NCCC[S+](C)C)cs2)cs1)[C@@H](C)O)[C@@H](OC1OC(CO)C(O)C(O)C1OC1OC(CO)C(O)C(OC(N)=O)C1O)c1cnc[nH]1 (stereo not given in full) [Bleomycin Sulfate]	inactive: 0.99
CC1(C)CC2=NO[Se]3=C2C(=NO3)C1	inactive: 1.06
CN(C)C(=S)SSC(=S)N(C)C [Thiram]	inactive: 1
C=C(C)C(=O)OC1CCC2(C)C(CCC3C2CCC2(C)C(c4ccc(=O)oc4)CC4OC432)C1 (stereo not given) [Resibufogenin derivative]	inactive: 0.999
